± gives the standard deviation of the averaged measurements. The list shows a part of the results.
Compound: Nc1nc2c(ncn2[C@@H]2O[C@H](COP(=O)(O)OP(=O)(O)OP(=O)(O)O)[C@@H](O)[C@H]2O)c(=O)[nH]1 [guanosine triphosphate]
Test: NP40-soluble protein abundance relative to vehicle (solubility fold change) (ratio); higher = more soluble protein in presence of GTP
Summary of the method: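 Each value is a fold change relative to the detergent-processed vehicle, calculated per replicate from vsn-normalised intensities. Jurkat crude lysate received eight concentrations (0.1 to 10 mM) for 10 min at room temperature and 3 min at 37 °C, then was solubilised in 0.8% NP40 with benzonase (60 min, 4 °C). The ultracentrifuged supernatant was TMT-labelled and run by LC-MS/MS in three independent experiments.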

Chains of the proteins cited; added tags and fusions are not shown. Lines headed by an entry give the natural chain unless they say otherwise; changes in a name come on top.
UniProt O43633: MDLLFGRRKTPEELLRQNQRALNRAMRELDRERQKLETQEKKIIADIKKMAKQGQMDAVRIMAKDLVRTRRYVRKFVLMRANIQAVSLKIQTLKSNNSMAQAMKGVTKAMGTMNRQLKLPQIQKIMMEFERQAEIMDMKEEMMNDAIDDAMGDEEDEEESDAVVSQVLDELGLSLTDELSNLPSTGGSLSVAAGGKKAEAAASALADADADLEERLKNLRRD
UniProt O60826, whole entry: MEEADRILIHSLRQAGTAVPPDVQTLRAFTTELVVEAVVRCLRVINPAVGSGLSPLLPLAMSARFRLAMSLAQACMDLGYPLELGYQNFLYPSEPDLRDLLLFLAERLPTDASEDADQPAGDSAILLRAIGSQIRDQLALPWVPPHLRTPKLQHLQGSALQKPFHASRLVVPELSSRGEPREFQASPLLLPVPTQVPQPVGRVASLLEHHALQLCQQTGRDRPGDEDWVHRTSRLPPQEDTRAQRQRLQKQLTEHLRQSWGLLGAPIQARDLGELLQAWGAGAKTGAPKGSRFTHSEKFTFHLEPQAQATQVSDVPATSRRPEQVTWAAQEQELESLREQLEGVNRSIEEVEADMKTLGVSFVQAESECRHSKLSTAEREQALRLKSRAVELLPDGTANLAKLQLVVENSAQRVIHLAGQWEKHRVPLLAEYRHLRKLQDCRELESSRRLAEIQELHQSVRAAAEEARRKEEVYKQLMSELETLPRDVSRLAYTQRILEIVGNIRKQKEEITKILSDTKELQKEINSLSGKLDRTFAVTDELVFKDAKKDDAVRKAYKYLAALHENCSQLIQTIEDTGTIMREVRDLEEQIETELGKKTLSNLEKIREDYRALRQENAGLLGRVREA
UniProt O15397, whole entry: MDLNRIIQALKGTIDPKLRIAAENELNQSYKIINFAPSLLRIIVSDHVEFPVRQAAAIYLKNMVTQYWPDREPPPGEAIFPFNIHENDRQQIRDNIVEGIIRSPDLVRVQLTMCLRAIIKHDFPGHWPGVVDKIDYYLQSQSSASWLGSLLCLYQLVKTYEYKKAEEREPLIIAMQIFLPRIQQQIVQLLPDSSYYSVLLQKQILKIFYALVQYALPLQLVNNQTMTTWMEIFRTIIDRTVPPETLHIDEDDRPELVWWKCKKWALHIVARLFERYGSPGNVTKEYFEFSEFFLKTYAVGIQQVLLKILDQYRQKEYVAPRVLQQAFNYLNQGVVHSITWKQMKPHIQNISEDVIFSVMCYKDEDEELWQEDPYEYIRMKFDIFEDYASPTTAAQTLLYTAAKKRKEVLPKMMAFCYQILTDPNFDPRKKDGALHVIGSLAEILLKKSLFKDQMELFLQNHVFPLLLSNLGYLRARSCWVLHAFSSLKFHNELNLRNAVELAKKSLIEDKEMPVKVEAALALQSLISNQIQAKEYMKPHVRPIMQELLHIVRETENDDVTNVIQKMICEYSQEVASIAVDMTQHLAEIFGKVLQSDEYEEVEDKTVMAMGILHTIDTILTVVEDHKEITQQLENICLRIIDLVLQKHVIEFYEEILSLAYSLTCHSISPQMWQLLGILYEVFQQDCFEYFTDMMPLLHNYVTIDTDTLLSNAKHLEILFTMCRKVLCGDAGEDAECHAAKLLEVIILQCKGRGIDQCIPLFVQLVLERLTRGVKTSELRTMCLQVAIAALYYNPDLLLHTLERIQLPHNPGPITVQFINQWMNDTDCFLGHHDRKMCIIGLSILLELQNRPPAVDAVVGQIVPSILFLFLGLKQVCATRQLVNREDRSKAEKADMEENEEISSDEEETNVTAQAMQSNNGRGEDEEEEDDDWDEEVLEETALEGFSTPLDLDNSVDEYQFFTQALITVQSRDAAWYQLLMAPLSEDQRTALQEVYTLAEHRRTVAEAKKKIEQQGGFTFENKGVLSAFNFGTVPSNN
UniProt Q13459: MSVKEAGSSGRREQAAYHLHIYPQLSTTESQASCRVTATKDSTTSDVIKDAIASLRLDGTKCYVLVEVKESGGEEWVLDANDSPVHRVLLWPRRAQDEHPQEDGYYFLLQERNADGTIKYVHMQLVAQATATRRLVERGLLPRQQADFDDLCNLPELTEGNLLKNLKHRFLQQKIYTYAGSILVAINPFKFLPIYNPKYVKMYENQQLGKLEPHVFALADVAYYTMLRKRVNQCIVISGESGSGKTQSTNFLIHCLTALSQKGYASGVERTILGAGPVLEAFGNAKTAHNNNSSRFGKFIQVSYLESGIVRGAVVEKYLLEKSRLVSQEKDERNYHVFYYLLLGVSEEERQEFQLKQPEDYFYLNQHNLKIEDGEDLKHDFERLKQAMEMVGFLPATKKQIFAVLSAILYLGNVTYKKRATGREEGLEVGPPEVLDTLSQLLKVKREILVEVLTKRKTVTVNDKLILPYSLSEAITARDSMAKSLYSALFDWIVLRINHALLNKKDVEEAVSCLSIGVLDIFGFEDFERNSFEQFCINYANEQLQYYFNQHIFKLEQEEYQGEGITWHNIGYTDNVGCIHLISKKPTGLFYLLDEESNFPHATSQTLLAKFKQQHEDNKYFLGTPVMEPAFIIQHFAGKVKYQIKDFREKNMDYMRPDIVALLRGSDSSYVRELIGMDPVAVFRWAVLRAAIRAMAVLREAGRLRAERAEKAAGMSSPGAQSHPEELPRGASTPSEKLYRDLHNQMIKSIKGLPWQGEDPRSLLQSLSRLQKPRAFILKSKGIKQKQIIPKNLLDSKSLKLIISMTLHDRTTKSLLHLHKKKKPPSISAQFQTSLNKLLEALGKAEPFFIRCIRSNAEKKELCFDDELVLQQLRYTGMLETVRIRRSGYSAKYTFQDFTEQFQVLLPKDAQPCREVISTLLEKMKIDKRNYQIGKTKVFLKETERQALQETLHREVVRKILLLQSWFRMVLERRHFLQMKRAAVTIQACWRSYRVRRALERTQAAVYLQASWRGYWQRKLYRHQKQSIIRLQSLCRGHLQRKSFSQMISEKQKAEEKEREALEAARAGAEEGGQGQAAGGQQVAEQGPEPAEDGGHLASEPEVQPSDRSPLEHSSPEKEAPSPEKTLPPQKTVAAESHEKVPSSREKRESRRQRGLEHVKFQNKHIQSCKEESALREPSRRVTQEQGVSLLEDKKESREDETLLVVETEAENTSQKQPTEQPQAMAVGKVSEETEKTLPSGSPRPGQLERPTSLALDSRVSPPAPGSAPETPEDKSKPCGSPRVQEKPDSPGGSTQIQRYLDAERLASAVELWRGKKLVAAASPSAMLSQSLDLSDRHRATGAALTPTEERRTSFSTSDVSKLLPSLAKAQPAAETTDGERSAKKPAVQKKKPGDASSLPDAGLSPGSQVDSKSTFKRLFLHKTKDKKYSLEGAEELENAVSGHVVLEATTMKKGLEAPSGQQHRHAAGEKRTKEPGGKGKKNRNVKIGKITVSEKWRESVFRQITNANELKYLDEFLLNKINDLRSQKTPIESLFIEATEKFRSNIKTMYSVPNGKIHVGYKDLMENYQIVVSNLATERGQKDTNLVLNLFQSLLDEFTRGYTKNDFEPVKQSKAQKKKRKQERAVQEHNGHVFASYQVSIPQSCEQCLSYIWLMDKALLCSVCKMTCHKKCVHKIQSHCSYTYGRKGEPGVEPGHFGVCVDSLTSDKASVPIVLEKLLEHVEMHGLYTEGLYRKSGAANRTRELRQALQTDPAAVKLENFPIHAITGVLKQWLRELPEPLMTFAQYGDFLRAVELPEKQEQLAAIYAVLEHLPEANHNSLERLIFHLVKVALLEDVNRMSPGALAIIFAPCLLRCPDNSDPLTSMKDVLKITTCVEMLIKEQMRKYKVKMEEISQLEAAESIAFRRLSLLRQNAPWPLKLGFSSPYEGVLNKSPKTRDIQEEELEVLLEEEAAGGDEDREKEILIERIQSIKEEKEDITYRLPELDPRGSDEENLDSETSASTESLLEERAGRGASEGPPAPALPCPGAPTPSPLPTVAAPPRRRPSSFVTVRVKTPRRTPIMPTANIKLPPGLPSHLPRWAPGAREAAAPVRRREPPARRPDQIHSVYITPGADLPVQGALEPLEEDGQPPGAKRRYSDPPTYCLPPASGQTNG
UniProt O00592: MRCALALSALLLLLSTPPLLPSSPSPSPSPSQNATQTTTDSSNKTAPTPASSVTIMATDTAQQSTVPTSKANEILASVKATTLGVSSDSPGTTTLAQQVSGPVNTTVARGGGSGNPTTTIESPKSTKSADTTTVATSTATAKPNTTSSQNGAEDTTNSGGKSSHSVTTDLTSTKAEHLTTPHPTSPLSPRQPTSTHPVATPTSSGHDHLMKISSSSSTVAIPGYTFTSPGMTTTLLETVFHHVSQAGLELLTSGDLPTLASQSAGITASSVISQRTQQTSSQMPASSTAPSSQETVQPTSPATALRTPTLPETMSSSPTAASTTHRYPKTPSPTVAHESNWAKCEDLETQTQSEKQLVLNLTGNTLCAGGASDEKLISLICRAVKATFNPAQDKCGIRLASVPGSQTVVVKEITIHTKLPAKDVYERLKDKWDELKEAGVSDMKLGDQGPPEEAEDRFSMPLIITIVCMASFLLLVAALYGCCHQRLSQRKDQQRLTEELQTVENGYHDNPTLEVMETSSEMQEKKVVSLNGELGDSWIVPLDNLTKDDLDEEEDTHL
UniProt O43752: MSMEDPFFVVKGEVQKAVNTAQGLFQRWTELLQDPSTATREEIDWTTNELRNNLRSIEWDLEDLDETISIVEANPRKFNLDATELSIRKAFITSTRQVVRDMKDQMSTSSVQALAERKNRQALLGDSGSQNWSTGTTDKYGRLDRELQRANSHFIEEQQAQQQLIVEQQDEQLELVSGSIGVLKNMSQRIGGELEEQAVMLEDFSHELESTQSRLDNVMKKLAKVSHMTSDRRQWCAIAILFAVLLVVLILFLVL
UniProt O00148, whole entry: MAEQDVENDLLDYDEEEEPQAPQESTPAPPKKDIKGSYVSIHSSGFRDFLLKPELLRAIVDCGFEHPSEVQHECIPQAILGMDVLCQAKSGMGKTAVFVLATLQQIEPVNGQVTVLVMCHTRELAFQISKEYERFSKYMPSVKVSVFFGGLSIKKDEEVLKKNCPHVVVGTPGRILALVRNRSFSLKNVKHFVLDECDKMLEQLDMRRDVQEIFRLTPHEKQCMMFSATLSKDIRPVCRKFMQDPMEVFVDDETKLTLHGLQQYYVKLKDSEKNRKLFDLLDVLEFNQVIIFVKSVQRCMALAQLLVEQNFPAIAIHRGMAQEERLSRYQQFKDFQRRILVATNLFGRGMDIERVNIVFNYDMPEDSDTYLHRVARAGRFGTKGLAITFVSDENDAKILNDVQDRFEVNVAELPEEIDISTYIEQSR
UniProt O60343: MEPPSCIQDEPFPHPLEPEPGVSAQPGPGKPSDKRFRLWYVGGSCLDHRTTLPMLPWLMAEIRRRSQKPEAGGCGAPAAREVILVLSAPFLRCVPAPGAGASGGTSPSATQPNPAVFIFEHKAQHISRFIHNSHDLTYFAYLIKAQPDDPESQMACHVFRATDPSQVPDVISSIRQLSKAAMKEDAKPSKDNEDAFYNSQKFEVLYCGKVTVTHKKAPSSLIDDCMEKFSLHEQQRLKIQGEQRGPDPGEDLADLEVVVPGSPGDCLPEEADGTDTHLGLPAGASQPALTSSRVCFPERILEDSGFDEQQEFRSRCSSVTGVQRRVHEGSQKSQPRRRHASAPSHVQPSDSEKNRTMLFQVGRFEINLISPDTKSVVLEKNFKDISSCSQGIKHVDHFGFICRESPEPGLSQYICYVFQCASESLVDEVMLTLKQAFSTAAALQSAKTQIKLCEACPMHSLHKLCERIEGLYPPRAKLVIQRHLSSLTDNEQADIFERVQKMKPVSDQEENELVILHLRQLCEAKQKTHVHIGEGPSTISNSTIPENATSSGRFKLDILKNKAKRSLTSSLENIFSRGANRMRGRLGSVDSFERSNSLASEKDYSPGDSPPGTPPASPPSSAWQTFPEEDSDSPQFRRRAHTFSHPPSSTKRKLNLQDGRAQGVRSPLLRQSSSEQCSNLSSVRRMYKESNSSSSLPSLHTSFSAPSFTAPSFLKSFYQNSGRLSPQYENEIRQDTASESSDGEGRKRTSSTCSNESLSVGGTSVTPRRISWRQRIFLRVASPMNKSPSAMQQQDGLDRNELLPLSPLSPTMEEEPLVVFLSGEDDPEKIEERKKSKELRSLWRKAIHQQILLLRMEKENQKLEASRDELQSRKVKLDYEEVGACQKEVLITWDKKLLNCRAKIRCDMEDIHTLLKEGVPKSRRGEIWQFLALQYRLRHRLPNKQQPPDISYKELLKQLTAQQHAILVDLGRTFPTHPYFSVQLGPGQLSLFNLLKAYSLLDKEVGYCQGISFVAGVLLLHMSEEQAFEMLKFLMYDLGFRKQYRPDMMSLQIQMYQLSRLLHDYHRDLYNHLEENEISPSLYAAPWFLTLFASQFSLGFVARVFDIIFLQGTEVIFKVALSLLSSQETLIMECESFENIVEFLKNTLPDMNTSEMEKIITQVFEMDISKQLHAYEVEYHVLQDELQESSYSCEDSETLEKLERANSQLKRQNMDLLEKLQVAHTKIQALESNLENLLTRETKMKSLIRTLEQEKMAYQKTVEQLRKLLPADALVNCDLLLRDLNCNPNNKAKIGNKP

Row | Target | NP40-soluble protein abundance (concentration: 0.1mM) | NP40-soluble protein abundance (concentration: 0.5mM) | NP40-soluble protein abundance (concentration: 1mM) | NP40-soluble protein abundance (concentration: 2mM) | NP40-soluble protein abundance (concentration: 4mM) | NP40-soluble protein abundance (concentration: 6mM) | NP40-soluble protein abundance (concentration: 8mM) | NP40-soluble protein abundance (concentration: 10mM)
1 | UniProt O60551 and related entries | 1.1 ± 0.021 | 1.091 ± 0.0049 | 1.12 ± 0.066 | 1.108 ± 0.0057 | 1.19 ± 0.099 | 1.17 ± 0.015 | 1.236 ± 0.012 | 1.149 ± 0.011
2 | CHMP2A (UniProt O43633) | 0.864 ± 0.033 | 0.865 ± 0.028 | 0.997 ± 0.038 | 0.9971 ± 0.0099 | 0.979 ± 0.05 | 0.998 ± 0.037 | 0.901 ± 0.16 | 1 ± 0.061
3 | PRMT3 (UniProt O60678) | 1.08 ± 0.087 | 1.05 ± 0.098 | 0.989 ± 0.059 | 1.02 ± 0.12 | 1.07 ± 0.097 | 0.986 ± 0.088 | 0.952 ± 0.023 | 0.945 ± 0.057
4 | UniProt O43829 | 0.98 ± 0.19 | 0.981 ± 0.074 | 1.02 ± 0.17 | 0.986 ± 0.091 | 0.945 ± 0.19 | 0.949 ± 0.067 | 1.13 ± 0.12 | 1.08 ± 0.067
5 | CCDC22 (UniProt O60826) | 0.976 ± 0.018 | 0.972 ± 0.013 | 0.99 ± 0.049 | 1.01 ± 0.063 | 1.02 ± 0.028 | 1.01 ± 0.073 | 1.02 ± 0.052 | 0.99 ± 0.052
6 | IPO8 (UniProt O15397) | 1.04 ± 0.022 | 0.983 ± 0.051 | 0.972 ± 0.032 | 0.965 ± 0.054 | 1.02 ± 0.034 | 0.989 ± 0.039 | 0.997 ± 0.029 | 1.007 ± 0.0078
7 | UniProt O15371 and related entries | 1.05 ± 0.05 | 1.08 ± 0.069 | 1.03 ± 0.095 | 1.13 ± 0.15 | 1.27 ± 0.2 | 1.36 ± 0.27 | 1.46 ± 0.22 | 1.6 ± 0.27
8 | M0R0P8 and related entries (UniProt Q13459) | 1.05 ± 0.03 | 1.01 ± 0.048 | 1.04 ± 0.055 | 1.02 ± 0.032 | 1.01 ± 0.028 | 0.991 ± 0.089 | 1.03 ± 0.014 | 0.973 ± 0.035
9 | UniProt O14880 and related entries | 0.98 ± 0.15 | 0.999 ± 0.12 | 0.98 ± 0.13 | 0.953 ± 0.14 | 0.947 ± 0.15 | 0.943 ± 0.15 | 0.906 ± 0.18 | 0.906 ± 0.16
10 | M0R2S1 and related entries (UniProt P62987) | 0.88 ± 0.084 | 0.895 ± 0.11 | 1.01 ± 0.17 | 0.915 ± 0.11 | 0.89 ± 0.089 | 0.886 ± 0.068 | 0.867 ± 0.12 | 0.941 ± 0.11
11 | UniProt O60763 and related entries | 0.922 ± 0.063 | 0.928 ± 0.045 | 0.92 ± 0.072 | 0.9 ± 0.079 | 0.892 ± 0.066 | 0.896 ± 0.075 | 0.888 ± 0.054 | 0.914 ± 0.069
12 | ARPC3 (UniProt O15145) | 1.01 ± 0.12 | 0.986 ± 0.073 | 1.09 ± 0.18 | 1.08 ± 0.15 | 1.05 ± 0.12 | 1.06 ± 0.089 | 1.05 ± 0.091 | 1.11 ± 0.23
13 | PDCD5 (UniProt O14737) | 0.97 ± 0.062 | 1.01 ± 0.063 | 1.1 ± 0.11 | 1.05 ± 0.099 | 1.08 ± 0.16 | 1.09 ± 0.098 | 1.23 ± 0.12 | 1.27 ± 0.18
14 | UniProt O00592 and related entries | 0.947 ± 0.056 | 0.883 ± 0.0096 | 0.998 ± 0.045 | 1.01 ± 0.033 | 0.948 ± 0.02 | 0.981 ± 0.035 | 0.913 ± 0.11 | 1.01 ± 0.031
15 | UniProt O14777 and related entries | 0.966 ± 0.017 | 0.95 ± 0.025 | 0.994 ± 0.02 | 0.954 ± 0.025 | 0.966 ± 0.045 | 0.955 ± 0.043 | 0.958 ± 0.037 | 0.971 ± 0.042
16 | YKT6 (UniProt O15498) | 0.907 ± 0.085 | 0.938 ± 0.077 | 0.876 ± 0.064 | 0.86 ± 0.036 | 0.839 ± 0.048 | 0.853 ± 0.067 | 0.82 ± 0.078 | 0.814 ± 0.078
17 | TRIM38 (UniProt O00635) | 1.02 ± 0.12 | 1.04 ± 0.12 | 0.963 ± 0.022 | 0.97 ± 0.12 | 0.971 ± 0.062 | 0.962 ± 0.056 | 0.918 ± 0.044 | 0.943 ± 0.019
18 | B4GAT1 (UniProt O43505) | 0.995 ± 0.089 | 0.953 ± 0.074 | 0.959 ± 0.07 | 0.917 ± 0.086 | 0.9 ± 0.056 | 0.921 ± 0.076 | 0.969 ± 0.1 | 0.89 ± 0.04
19 | STX6 (UniProt O43752) | 0.923 ± 0.05 | 0.878 ± 0.082 | 0.967 ± 0.084 | 0.932 ± 0.062 | 0.921 ± 0.066 | 0.908 ± 0.065 | 0.896 ± 0.021 | 0.907 ± 0.084
20 | UniProt O60825 and related entries | 1.06 ± 0.031 | 1.05 ± 0.033 | 1 ± 0.039 | 0.981 ± 0.033 | 0.977 ± 0.053 | 0.962 ± 0.069 | 0.938 ± 0.027 | 0.917 ± 0.054
21 | UniProt O00273 and related entries | 0.89 ± 0.086 | 0.9 ± 0.093 | 0.903 ± 0.11 | 0.869 ± 0.11 | 0.859 ± 0.11 | 0.875 ± 0.1 | 0.861 ± 0.099 | 0.882 ± 0.098
22 | UniProt O14920 | 1.022 ± 0.0088 | 0.9963 ± 0.0081 | 0.935 ± 0.015 | 0.944 ± 0.03 | 0.949 ± 0.024 | 0.934 ± 0.032 | 0.913 ± 0.017 | 0.896 ± 0.027
23 | UniProt O00148 | 1.05 ± 0.053 | 1.03 ± 0.073 | 0.931 ± 0.03 | 0.931 ± 0.071 | 0.933 ± 0.054 | 0.949 ± 0.046 | 0.899 ± 0.051 | 0.865 ± 0.085
24 | ARPC5 (UniProt O15511) | 0.864 ± 0.14 | 0.85 ± 0.08 | 1.09 ± 0.22 | 1.07 ± 0.13 | 1.03 ± 0.14 | 1.05 ± 0.096 | 0.999 ± 0.14 | 1.17 ± 0.24
25 | UniProt O60343 and related entries | 1.02 ± 0.036 | 1.03 ± 0.03 | 0.979 ± 0.014 | 0.967 ± 0.047 | 0.953 ± 0.044 | 0.944 ± 0.052 | 0.965 ± 0.054 | 0.938 ± 0.066
26 | SCO2 (UniProt O43819) | 1.11 ± 0.087 | 1.05 ± 0.069 | 1.04 ± 0.1 | 1.03 ± 0.077 | 1.05 ± 0.16 | 1.04 ± 0.14 | 1.07 ± 0.094 | 1.05 ± 0.1
27 | UniProt O00743 and related entries | 1.07 ± 0.13 | 1.09 ± 0.13 | 0.945 ± 0.1 | 0.979 ± 0.19 | 0.979 ± 0.15 | 0.955 ± 0.13 | 0.916 ± 0.097 | 0.888 ± 0.13
28 | PPM1G (UniProt O15355) | 0.918 ± 0.088 | 0.911 ± 0.094 | 0.959 ± 0.097 | 0.888 ± 0.12 | 0.898 ± 0.12 | 0.894 ± 0.12 | 0.927 ± 0.089 | 0.923 ± 0.1
29 | UniProt O00522 and related entries | 1.13 ± 0.045 | 1.14 ± 0.086 | 1.11 ± 0.025 | 1.08 ± 0.044 | 1.1 ± 0.061 | 1.009 ± 0.002 | 1.05 ± 0.087 | 1.02 ± 0.057
30 | UniProt O60271 and related entries | 0.995 ± 0.052 | 0.971 ± 0.047 | 0.994 ± 0.05 | 0.958 ± 0.051 | 0.969 ± 0.066 | 0.942 ± 0.035 | 1 ± 0.032 | 0.977 ± 0.046

Reformatted with each value named: part of the list above.
UniProt O60551 and related entries
  NP40-soluble protein abundance (concentration: 0.1mM): 1.1 ± 0.021
  NP40-soluble protein abundance (concentration: 0.5mM): 1.091 ± 0.0049
  NP40-soluble protein abundance (concentration: 1mM): 1.12 ± 0.066
  NP40-soluble protein abundance (concentration: 2mM): 1.108 ± 0.0057
  NP40-soluble protein abundance (concentration: 4mM): 1.19 ± 0.099
  NP40-soluble protein abundance (concentration: 6mM): 1.17 ± 0.015
  NP40-soluble protein abundance (concentration: 8mM): 1.236 ± 0.012
  NP40-soluble protein abundance (concentration: 10mM): 1.149 ± 0.011
CCDC22 (UniProt O60826)
  NP40-soluble protein abundance (concentration: 0.1mM): 0.976 ± 0.018
  NP40-soluble protein abundance (concentration: 0.5mM): 0.972 ± 0.013
  NP40-soluble protein abundance (concentration: 1mM): 0.99 ± 0.049
  NP40-soluble protein abundance (concentration: 2mM): 1.01 ± 0.063
  NP40-soluble protein abundance (concentration: 4mM): 1.02 ± 0.028
  NP40-soluble protein abundance (concentration: 6mM): 1.01 ± 0.073
  NP40-soluble protein abundance (concentration: 8mM): 1.02 ± 0.052
  NP40-soluble protein abundance (concentration: 10mM): 0.99 ± 0.052

— the supplement of paper PMC6411743
